# From article PMC7819943, “Rice protein-binding microarrays: a tool to detect cis-acting elements near promoter regions in rice”
# Amino acid sequences for entries named in this document (tags omitted).
# UniProt Q0JBA9, entry or part of it: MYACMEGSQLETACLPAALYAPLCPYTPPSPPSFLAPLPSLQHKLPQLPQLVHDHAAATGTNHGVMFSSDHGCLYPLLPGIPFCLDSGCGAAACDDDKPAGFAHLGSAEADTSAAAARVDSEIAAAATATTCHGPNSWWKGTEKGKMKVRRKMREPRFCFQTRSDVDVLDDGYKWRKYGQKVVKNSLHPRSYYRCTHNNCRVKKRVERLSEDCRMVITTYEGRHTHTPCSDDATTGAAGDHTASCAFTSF
# This is one part of the list.
# Target: OsWRKY34 (Oryza sativa, UniProt Q0JBA9 1-250)
# Experiment: protein-binding microarray (RPBM); PBS, 2% BSA, 51.3 ng/ul salmon testes DNA, 50 uM zinc acetate, 200 nM TF, 25 C, 1 h; high values mean tight binding
# Settings: protein: recombinant; tags: N-terminal polyhistidine and DsRed monomer fusion (pET32a); label: CyDye5-dUTP incorporated in the synthesized complementary strand; 3' TTTTT single-stranded linker to array surface; dsDNA, one strand shown
# Procedure, shortened: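 An Axon 4000B scanner gave the binding signal as per-feature fluorescence intensity in arbitrary units. This followed washing of a custom Agilent array that had been incubated for 1 h at 25 °C with 200 nM protein in PBS, 2% BSA, salmon testes DNA and 50 µM zinc acetate. The proteins were transcription factors fused at the N-terminus to polyhistidine and DsRed, expressed in E. coli BL21-CodonPlus and purified on Ni–NTA.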
row,Sequence,binding signal
1,GTCTCCTCGGGCCATTCTCTCGCCGGATTCGGATCCCGCGCGGAGTCACCTAGTGCAG,13200 fluorescence intensity (a.u.)
2,ACAGGCCTCCATCCATCGATCAACAGTTTATTCAGCGCATCGGAGTCACCTAGTGCAG,9050 fluorescence intensity (a.u.)
3,AAGATCACCATCCATTGCCCAATTCGCCGTCGTCGTCTTCCGGAGTCACCTAGTGCAG,8320 fluorescence intensity (a.u.)
4,GCCTCAGCCTCTCCATCAGAGCTACGCAATCTTGTTTTCTCGGAGTCACCTAGTGCAG,8980 fluorescence intensity (a.u.)
5,ATTATGTTCTTATGGGTTGTCTTACGGGTTGTGACTGCGCCGGAGTCACCTAGTGCAG,9560 fluorescence intensity (a.u.)
6,AGTTATTGTTAAATCTTGGGCTGTGTTAAATGTTGGTTTTCGGAGTCACCTAGTGCAG,9720 fluorescence intensity (a.u.)
7,CCACCAATCCACCACCGCCACGCCACTTCACCCTTGTTTTCGGAGTCACCTAGTGCAG,9810 fluorescence intensity (a.u.)
8,TGTCCACCGCCACGAAATCCTGCAGACACACGGCACACTCCGGAGTCACCTAGTGCAG,12400 fluorescence intensity (a.u.)
9,GCACCGGCGCCACCGCCCGCGCCCGCACCACCGCCCACGCCGGAGTCACCTAGTGCAG,8870 fluorescence intensity (a.u.)
10,GTGGTCACCCTAAGCCCTGGCTGCCTCCATCGCGGAGGTGCGGAGTCACCTAGTGCAG,8830 fluorescence intensity (a.u.)
11,CTTCCAACTAGATTAAGATGTTTGCTGACTGAGTTATTCACGGAGTCACCTAGTGCAG,8020 fluorescence intensity (a.u.)
12,ATTCCATCCACATACTTCTGCCCATTCGGAACCCACTAGGCGGAGTCACCTAGTGCAG,8680 fluorescence intensity (a.u.)
13,CGTATCATTGCCATCTACTGGCCCCATCCTACTACTACTCCGGAGTCACCTAGTGCAG,8430 fluorescence intensity (a.u.)
14,AAGAAGGGGAGTGGATTGTATAGGGGTGGATGGGGATCGACGGAGTCACCTAGTGCAG,13400 fluorescence intensity (a.u.)
15,GTCATGTCACTATGCATCTCACACTTCTCTCTCCATCCCCCGGAGTCACCTAGTGCAG,8810 fluorescence intensity (a.u.)
16,ACCATTCCATTCCATTCGATCCATTCTAGCTAGCTTATCTCGGAGTCACCTAGTGCAG,9610 fluorescence intensity (a.u.)
17,GCCGTCCCTTTCGGTTTCATCATCGATCGGTTTCATCCACCGGAGTCACCTAGTGCAG,8180 fluorescence intensity (a.u.)
18,CTCCACCGCAACGTCCACCTCGGCGAGATCGCCGGCGAGCCGGAGTCACCTAGTGCAG,9710 fluorescence intensity (a.u.)
19,CTTTTCCGTTTTGGTTTCTATCTCTCAGTCCGTCTGTGTACGGAGTCACCTAGTGCAG,12100 fluorescence intensity (a.u.)
20,ACCACTGCCTCTCTGCTCCGGCTCTCCGCCTCTCCTGACTCGGAGTCACCTAGTGCAG,10300 fluorescence intensity (a.u.)
21,TTTTGCTTCACTAAAATTTGAAGTGTCCTTGTCCAACAATCGGAGTCACCTAGTGCAG,8460 fluorescence intensity (a.u.)

row,Sequence,binding signal
1,CCAGGAATTTGGATCCACTTGAGTTTAATTAATTAATTTCCGGAGTCACCTAGTGCAG,8900 fluorescence intensity (a.u.)
2,GGAGGGTGCGACAGCCCAATGTATCACTTGCGTTTGTATCCGGAGTCACCTAGTGCAG,8230 fluorescence intensity (a.u.)
3,GATGTTCTATTAGTCCCGTCACTTTTGCTTTTTTTCTTTCCGGAGTCACCTAGTGCAG,8530 fluorescence intensity (a.u.)
4,TATTGTCTAATTGGCATAGCTGCCAATCTGTTATTGCTCACGGAGTCACCTAGTGCAG,8660 fluorescence intensity (a.u.)
5,CATGCGTTCCTGTGGTCTGGGGAGGATTCTTGTCATGGCTCGGAGTCACCTAGTGCAG,13000 fluorescence intensity (a.u.)
6,ATTATCCTTAACGAATTAGTTAGTTACGTCTTCGTACGTTCGGAGTCACCTAGTGCAG,8190 fluorescence intensity (a.u.)
7,CTTTGTTTGATCGTATCTCTGGCGCTTTGGTATCAGTTCCCGGAGTCACCTAGTGCAG,8430 fluorescence intensity (a.u.)
8,AAGGCTGTGTCGTGTTGTTCGGGCCGCATCTTGGCCCTTCCGGAGTCACCTAGTGCAG,8150 fluorescence intensity (a.u.)
9,GAACATCTTTTCTTCTACTTGTTTGATGGCAGAGACTTGACGGAGTCACCTAGTGCAG,8910 fluorescence intensity (a.u.)
10,ATCTACTATTACTAGCTGCTAATTAACAACGCACTAACTACGGAGTCACCTAGTGCAG,8360 fluorescence intensity (a.u.)
11,CGGCCCATATCCCATATCTCATCGTACTCTTCCTCAATTCCGGAGTCACCTAGTGCAG,10500 fluorescence intensity (a.u.)
12,TCCGGAGTCTGCACCCATCTTCCCCACGTGCGCGCCCATCCGGAGTCACCTAGTGCAG,8980 fluorescence intensity (a.u.)
13,CGTATTCCAGTGAGTTGGTTTTGAAAGGCCCAGCCGGCCCCGGAGTCACCTAGTGCAG,8260 fluorescence intensity (a.u.)
14,TATCCGCATCTCCCATCACATTAAGTTTTCAATGATTTTTCGGAGTCACCTAGTGCAG,9830 fluorescence intensity (a.u.)
15,TCCTTGTCCATCTTTGTCCAGGCCTCGCGTTCCTCGGTTCCGGAGTCACCTAGTGCAG,14200 fluorescence intensity (a.u.)
16,GCCTTCATTTCTTTGTATTCCAGTCTACAGAGCATAAATGCGGAGTCACCTAGTGCAG,8120 fluorescence intensity (a.u.)
17,GCAAGAGCTCTCACACCCTTGTGCACTTAGTTTATCTAGTCGGAGTCACCTAGTGCAG,12000 fluorescence intensity (a.u.)
18,CTGAGAAATGCTTGGTGTGTTTGCATGTTGTTCTTCGTCACGGAGTCACCTAGTGCAG,8160 fluorescence intensity (a.u.)
19,AGGAGAGAAGTTTTTTGGTAGAGCTTTGGAAAATTCCACACGGAGTCACCTAGTGCAG,8620 fluorescence intensity (a.u.)
20,CCTTCGCAGTAACGTAATTGTGTCTGGTCAACGCACAATTCGGAGTCACCTAGTGCAG,11300 fluorescence intensity (a.u.)
21,ATCTTTGCGGCGCCTCCTATTCCGTCAAGGCAGGCCGCAGCGGAGTCACCTAGTGCAG,9260 fluorescence intensity (a.u.)

# Rewritten tab-delimited: entries from further up.
row	Sequence	binding signal
2	GGAGGGTGCGACAGCCCAATGTATCACTTGCGTTTGTATCCGGAGTCACCTAGTGCAG	8230 fluorescence intensity (a.u.)
4	TATTGTCTAATTGGCATAGCTGCCAATCTGTTATTGCTCACGGAGTCACCTAGTGCAG	8660 fluorescence intensity (a.u.)
6	ATTATCCTTAACGAATTAGTTAGTTACGTCTTCGTACGTTCGGAGTCACCTAGTGCAG	8190 fluorescence intensity (a.u.)
9	GAACATCTTTTCTTCTACTTGTTTGATGGCAGAGACTTGACGGAGTCACCTAGTGCAG	8910 fluorescence intensity (a.u.)
12	TCCGGAGTCTGCACCCATCTTCCCCACGTGCGCGCCCATCCGGAGTCACCTAGTGCAG	8980 fluorescence intensity (a.u.)
13	CGTATTCCAGTGAGTTGGTTTTGAAAGGCCCAGCCGGCCCCGGAGTCACCTAGTGCAG	8260 fluorescence intensity (a.u.)
14	TATCCGCATCTCCCATCACATTAAGTTTTCAATGATTTTTCGGAGTCACCTAGTGCAG	9830 fluorescence intensity (a.u.)
16	GCCTTCATTTCTTTGTATTCCAGTCTACAGAGCATAAATGCGGAGTCACCTAGTGCAG	8120 fluorescence intensity (a.u.)
18	CTGAGAAATGCTTGGTGTGTTTGCATGTTGTTCTTCGTCACGGAGTCACCTAGTGCAG	8160 fluorescence intensity (a.u.)
19	AGGAGAGAAGTTTTTTGGTAGAGCTTTGGAAAATTCCACACGGAGTCACCTAGTGCAG	8620 fluorescence intensity (a.u.)
